The results in this text go back to the supplement of paper PMC10849652.

The chains behind the UniProt entries cited, without tags or fusion partners. Where a name states a change or a piece, a line headed by the entry shows the natural chain unless it says otherwise.
UniProt Q5SWH9: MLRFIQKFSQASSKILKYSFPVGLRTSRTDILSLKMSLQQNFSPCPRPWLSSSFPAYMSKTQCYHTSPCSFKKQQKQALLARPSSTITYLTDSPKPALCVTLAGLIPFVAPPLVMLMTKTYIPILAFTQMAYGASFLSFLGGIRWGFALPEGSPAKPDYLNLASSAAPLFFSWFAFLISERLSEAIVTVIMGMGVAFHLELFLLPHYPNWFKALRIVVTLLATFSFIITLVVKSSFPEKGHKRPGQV
UniProt Q53S58: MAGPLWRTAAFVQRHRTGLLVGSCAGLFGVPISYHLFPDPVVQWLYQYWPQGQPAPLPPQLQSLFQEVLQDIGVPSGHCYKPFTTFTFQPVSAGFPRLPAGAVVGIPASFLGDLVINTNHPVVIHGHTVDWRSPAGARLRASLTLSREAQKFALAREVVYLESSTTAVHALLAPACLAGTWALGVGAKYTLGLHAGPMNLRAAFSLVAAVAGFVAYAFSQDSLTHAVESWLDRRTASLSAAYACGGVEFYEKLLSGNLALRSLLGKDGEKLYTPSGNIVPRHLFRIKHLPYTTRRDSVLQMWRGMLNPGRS
UniProt Q96I45: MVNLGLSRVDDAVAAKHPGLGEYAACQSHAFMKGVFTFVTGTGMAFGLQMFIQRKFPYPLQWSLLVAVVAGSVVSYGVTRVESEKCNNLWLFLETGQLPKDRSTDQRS
UniProt Q8TDI8: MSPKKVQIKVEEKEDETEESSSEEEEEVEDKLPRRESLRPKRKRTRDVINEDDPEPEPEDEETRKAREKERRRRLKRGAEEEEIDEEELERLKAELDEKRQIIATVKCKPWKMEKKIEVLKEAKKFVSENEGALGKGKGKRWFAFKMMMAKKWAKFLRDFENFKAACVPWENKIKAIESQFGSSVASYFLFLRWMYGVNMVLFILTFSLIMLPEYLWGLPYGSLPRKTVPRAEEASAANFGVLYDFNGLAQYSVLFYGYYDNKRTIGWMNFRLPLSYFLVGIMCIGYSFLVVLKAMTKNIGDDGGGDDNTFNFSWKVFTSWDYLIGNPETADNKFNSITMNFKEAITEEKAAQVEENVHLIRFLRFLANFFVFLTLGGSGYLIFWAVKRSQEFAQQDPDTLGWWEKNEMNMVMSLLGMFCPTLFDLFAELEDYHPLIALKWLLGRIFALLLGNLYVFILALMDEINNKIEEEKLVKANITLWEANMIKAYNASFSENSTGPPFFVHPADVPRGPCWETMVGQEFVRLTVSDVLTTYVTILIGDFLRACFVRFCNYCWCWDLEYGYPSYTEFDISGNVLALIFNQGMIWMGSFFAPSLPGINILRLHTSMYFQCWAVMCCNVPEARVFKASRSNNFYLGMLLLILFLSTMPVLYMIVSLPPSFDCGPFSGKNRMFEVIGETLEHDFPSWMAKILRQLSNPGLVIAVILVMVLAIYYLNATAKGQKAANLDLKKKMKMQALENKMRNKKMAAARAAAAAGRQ
UniProt Q9NR96: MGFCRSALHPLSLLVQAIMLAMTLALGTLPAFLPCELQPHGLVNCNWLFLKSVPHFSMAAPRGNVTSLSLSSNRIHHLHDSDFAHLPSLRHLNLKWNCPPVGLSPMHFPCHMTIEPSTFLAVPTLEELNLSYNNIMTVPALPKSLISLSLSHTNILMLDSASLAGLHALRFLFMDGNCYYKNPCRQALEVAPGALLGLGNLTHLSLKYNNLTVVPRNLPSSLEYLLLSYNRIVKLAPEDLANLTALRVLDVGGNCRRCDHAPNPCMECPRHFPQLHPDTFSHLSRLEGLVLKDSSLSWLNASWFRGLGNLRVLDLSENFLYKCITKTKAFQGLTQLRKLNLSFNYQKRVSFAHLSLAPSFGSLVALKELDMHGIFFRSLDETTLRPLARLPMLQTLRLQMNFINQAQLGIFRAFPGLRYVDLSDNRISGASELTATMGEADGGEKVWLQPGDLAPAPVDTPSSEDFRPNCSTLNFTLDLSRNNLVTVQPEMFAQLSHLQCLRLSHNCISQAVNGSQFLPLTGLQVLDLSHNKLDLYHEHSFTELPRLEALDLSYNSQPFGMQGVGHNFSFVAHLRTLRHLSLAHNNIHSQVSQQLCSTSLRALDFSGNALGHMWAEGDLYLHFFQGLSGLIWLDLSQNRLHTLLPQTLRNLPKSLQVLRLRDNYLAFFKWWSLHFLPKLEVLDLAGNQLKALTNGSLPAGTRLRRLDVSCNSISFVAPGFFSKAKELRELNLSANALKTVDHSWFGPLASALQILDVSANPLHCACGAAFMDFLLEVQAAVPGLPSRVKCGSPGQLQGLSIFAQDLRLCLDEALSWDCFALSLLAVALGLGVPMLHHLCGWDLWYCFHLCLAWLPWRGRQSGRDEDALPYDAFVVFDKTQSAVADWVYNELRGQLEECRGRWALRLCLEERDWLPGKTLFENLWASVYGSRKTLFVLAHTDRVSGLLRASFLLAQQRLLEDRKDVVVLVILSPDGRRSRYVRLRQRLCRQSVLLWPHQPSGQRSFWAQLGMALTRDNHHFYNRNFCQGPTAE
UniProt A0PJW6: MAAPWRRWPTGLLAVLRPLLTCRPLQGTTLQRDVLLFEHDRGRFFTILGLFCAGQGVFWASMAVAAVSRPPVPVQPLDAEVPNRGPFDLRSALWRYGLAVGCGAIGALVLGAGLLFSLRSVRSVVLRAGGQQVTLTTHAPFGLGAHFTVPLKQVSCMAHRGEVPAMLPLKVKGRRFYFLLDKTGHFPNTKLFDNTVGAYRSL
UniProt Q9NWH2: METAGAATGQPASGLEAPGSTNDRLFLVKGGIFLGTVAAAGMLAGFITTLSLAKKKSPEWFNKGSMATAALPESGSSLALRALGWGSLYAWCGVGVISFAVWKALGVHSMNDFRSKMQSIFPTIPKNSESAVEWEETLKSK
UniProt O00220, whole entry, looked up: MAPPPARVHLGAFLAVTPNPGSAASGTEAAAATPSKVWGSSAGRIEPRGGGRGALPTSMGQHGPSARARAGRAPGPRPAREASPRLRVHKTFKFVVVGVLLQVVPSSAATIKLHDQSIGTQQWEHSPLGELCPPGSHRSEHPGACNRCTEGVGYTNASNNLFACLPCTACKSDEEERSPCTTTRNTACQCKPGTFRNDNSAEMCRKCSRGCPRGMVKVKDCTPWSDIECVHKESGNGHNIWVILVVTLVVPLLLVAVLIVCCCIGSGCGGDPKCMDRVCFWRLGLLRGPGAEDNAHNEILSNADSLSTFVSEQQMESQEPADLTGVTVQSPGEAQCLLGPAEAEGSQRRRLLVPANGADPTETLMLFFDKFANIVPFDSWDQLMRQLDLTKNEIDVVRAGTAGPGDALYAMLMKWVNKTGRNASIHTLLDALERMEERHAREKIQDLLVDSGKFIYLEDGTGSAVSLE
UniProt Q9NQ34: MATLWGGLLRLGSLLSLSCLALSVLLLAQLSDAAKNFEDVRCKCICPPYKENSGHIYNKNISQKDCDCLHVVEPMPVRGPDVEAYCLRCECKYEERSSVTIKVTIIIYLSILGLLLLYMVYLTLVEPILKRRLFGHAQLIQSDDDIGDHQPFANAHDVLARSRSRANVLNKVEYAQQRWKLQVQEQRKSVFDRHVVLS
UniProt Q8NDZ6: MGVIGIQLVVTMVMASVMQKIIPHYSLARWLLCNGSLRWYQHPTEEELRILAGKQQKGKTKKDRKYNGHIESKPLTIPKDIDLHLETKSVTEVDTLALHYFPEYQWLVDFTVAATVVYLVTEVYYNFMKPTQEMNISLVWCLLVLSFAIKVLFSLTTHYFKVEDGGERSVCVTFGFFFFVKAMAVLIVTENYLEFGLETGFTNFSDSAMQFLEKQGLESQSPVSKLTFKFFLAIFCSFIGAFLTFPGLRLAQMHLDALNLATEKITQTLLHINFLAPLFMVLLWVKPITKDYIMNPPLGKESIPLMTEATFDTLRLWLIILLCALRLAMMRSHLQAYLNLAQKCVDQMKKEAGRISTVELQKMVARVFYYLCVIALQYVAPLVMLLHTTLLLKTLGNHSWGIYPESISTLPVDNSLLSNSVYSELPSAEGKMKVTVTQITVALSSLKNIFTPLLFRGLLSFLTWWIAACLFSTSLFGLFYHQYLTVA
UniProt Q9P0S9: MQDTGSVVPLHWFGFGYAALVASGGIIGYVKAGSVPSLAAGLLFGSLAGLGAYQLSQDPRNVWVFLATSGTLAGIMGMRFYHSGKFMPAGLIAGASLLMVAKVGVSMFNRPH
UniProt O14763, whole entry, looked up: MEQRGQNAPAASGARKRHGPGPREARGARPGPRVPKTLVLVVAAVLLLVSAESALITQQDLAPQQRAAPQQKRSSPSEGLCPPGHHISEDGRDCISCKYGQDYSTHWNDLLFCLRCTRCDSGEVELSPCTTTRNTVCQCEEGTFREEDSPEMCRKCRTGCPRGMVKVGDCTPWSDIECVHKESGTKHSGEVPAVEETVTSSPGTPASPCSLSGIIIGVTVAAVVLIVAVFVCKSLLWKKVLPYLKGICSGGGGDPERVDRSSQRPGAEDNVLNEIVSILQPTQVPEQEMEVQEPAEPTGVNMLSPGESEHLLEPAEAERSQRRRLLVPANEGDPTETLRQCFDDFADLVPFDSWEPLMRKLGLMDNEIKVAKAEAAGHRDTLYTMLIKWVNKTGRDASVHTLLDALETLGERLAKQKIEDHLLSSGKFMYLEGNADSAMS
UniProt Q9NS93: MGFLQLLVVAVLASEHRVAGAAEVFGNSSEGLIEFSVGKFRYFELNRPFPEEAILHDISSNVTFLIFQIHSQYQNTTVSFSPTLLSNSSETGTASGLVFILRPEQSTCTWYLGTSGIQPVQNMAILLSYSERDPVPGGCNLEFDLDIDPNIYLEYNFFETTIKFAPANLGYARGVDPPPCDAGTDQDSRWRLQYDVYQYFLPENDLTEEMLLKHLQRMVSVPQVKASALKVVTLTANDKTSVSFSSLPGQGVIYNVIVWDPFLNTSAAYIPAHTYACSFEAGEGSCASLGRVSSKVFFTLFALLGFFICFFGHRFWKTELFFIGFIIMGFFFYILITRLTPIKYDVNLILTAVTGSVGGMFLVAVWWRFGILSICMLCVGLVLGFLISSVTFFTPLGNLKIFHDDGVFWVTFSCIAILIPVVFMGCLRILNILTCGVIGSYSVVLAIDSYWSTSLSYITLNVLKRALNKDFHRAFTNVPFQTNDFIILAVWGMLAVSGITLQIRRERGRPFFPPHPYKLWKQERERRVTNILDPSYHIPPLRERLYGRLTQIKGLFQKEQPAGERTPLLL
UniProt Q7Z403: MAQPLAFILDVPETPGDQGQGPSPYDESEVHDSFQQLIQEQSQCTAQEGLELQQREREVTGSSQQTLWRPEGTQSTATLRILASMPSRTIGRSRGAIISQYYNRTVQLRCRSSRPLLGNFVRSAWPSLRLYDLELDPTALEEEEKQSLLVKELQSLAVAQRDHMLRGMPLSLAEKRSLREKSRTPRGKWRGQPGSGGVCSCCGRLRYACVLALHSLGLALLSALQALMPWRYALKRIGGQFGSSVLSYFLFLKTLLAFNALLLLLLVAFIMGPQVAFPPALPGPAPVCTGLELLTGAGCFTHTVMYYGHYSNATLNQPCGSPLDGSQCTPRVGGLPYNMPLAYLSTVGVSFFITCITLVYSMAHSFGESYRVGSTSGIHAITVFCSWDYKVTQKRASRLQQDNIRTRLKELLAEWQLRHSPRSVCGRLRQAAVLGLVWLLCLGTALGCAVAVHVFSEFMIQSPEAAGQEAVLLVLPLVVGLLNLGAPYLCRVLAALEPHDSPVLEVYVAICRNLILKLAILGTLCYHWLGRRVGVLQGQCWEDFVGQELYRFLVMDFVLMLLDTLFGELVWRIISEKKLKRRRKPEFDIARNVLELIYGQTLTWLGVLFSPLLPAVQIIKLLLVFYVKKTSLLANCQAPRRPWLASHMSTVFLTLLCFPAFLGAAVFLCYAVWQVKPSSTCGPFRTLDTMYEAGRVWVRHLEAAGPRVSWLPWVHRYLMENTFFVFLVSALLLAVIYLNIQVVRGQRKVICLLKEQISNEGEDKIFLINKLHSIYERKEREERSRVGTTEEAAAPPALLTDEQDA
UniProt Q8IY95: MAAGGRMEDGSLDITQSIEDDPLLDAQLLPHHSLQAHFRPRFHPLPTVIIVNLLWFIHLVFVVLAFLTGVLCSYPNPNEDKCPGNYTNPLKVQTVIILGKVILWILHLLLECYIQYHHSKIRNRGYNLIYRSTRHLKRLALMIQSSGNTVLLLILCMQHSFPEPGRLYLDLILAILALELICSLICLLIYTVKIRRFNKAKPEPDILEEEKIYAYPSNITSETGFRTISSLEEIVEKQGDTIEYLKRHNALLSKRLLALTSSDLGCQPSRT
UniProt Q96HV5: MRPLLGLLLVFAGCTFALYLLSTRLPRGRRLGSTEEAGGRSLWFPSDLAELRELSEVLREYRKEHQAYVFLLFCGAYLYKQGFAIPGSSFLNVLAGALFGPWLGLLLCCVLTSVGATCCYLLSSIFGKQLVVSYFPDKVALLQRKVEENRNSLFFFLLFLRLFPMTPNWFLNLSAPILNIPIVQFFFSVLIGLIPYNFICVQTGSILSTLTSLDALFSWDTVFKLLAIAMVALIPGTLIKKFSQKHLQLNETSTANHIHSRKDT

The list shows a part of the results.

Compound in this assay: C1CCN(C1)C(=O)NC2=CC=CC(=C2)NC3=NC=C(C(=N3)NCCC4=CN=CN4)Br
The assay can be described thus: log2 fold change, soluble protein after heating vs DMSO (PISA); higher = thermal stabilisation; K562 cells, 10 uM, 30 min; active = over 0.2 and 3.5 SD of the protein, either way, in both replicates (recomputed). Summed up: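 Soluble protein was quantified by TMTpro 16plex LC-MS/MS after channel sums were equalised. It was obtained as the supernatant after 21,000xg for 90 min from pooled aliquots of K562 cells (2×10^6 cells/mL, 10 μM compound, 30 min) heated for 3 min across 48°C-58°C and extracted in PBS with 0.5% NP-40 at 4°C. Thermal stability values are relative to control samples and come from duplicates. They are given as log2 fold changes.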
In the case of TMEM69 (UniProt Q5SWH9), the log2 fold change is inactive: 0.087.
Regarding TMEM177 (UniProt Q53S58), the log2 fold change is inactive: 0.028.
Turning to TMEM141 (UniProt Q96I45), the log2 fold change is inactive: 0.023.
For TMEM63A (UniProt O94886), the log2 fold change was inactive: 0.01.
TMEM120B (UniProt A0PK00): the log2 fold change is inactive: -0.316.
As to TMEM147 (UniProt Q9BVK8), the log2 fold change was inactive: -0.039.
In the case of TMC1 (UniProt Q8TDI8) it was inactive: 0.067; in that of TLR9 isoform 4 (UniProt Q9NR96), inactive: 0.053.
In the case of TMEM223 (UniProt A0PJW6) it was inactive: 0.007.
In the case of TMEM242 (UniProt Q9NWH2) it was inactive: 0.064; in that of TNFRSF10A (UniProt O00220), inactive: -0.039; in that of TMEM9B (UniProt Q9NQ34), inactive: -0.006.
Consider TMEM268 isoform 3 (UniProt Q5VZI3), for which the log2 fold change was inactive: 0.13.
As to TMEM87B (UniProt Q96K49), the log2 fold change was inactive: -0.06.
Consider TMEM161B (UniProt Q8NDZ6), for which the log2 fold change was inactive: -0.053.
As to TMEM14C (UniProt Q9P0S9), the log2 fold change was inactive: -0.055.
In the case of TM6SF1 (UniProt Q9BZW5) it was inactive: 0.133; in that of TNFRSF10B (UniProt O14763), inactive: 0.007.
Regarding TM7SF3 (UniProt Q9NS93), the log2 fold change was inactive: 0.001.
TMC6 (UniProt Q7Z403): the log2 fold change was inactive: -0.009.
In the case of TMEM192 (UniProt Q8IY95) it was inactive: 0.039; in that of TMEM41A (UniProt Q96HV5), inactive: -0.069; in that of TMEM123 (UniProt Q8N131), inactive: 0.042.
